Results on 31 molecules are retold here after PubChem BioAssay AID1487 (National Center for Advancing Translational Sciences (NCATS), 2009).

A short description of the assay: qHTS Assay for Modulators of Lamin A Splicing. Conditions: HeLa LMNA splicing GFP/RFP minigene ratio, 48 h. The gist of the method:
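S3 HeLa stable clones carrying a lamin A-EGFP splicing minigene plus DsRed2 were seeded at 600 cells/well in Opti-MEM with 2% FBS, pin-dosed and incubated 48 h at 37°C. Acumen cytometry (488 nm) gave the GFP/RFP total-intensity ratio.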
Background: Quantitative high-throughput screening tests each substance at several concentrations.

Setting [1] is: measured here: GFP splicing reporter channel.
The mark [2] stands for this setting: measured here: RFP viability control channel.

This is one part of the list. The main result of the screen is listed elsewhere. These columns were measured beside it and carry no call. The list favours compounds with an active or inconclusive main result. The note in brackets gives the kind of curve behind each potency; many fits are weak.

As for `CN(C)S(=O)(=O)c1ccc2c(c1)nc(CCC(=O)NCC1CCCCC1)n2C`, the AC50 was 10 µM [rising, partial curve, poor fit] under setting [1] and 11.2 µM [rising, single point] under setting [2].

Consider `COc1ccc(CS(=O)(=O)/C(Cl)=C(/Cl)C(=O)Nc2ccc(OC)nc2)cc1`, for which the AC50 under setting [1] is 3.16 µM [falling, full curve] and the AC50 under setting [2] was 7.08 µM [falling, full curve].

As to `Fc1cccc(CSc2nc3ncccc3[nH]2)c1`, the AC50 is, setting by setting: under setting [1], 3.55 µM [rising, partial curve, poor fit]; under setting [2], 1.41 µM [rising, full curve, poor fit].

Regarding `Cc1nc2c(OCc3ccccc3)cccn2c1CC#N`, under setting [1], the half-maximal activity concentration (AC50) was 2 µM [falling, partial curve, poor fit].

In the case of `O=C(CSc1nc2ccccc2c(=O)n1-c1ccccc1)NCc1ccco1`, under setting [2], the AC50 was 0.00891 µM [rising, full curve, poor fit].

For the molecule `Cc1ccc(S(=O)(=O)N2CCCC(C(=O)N(Cc3cccs3)C3CC3)C2)cc1` (centres undefined), the AC50 by setting is: under setting [1], 0.158 µM [rising, full curve, poor fit]; under setting [2], 20 µM [rising, partial curve].

Consider `COc1ccc(C(=O)NCc2ccc3c(c2)CCN3C(=O)c2ccc(C)cc2)cc1`, for which the AC50 was 7.08 µM [falling, partial curve, poor fit] under setting [1] and 2.51 µM [falling, partial curve, poor fit] under setting [2].

In the case of `O=C(CCCOc1ccc(Cl)cc1Cl)N/N=C/c1ccccc1O`, the AC50 under setting [2] is 8.91 µM [rising, partial curve, poor fit].

For the molecule `Cc1ccc(NC(=O)CN(C)CC(=O)Nc2cccc(F)c2)cc1[N+](=O)[O-]`, under setting [1], the half-maximal activity concentration (AC50) was 5.01 µM [falling, partial curve, poor fit].

Turning to `CC(=O)c1cccc(NC(=O)C2CCN(S(=O)(=O)c3ccc4[nH]c(=O)ccc4c3)CC2)c1`, the AC50 reads like this: under setting [1], 0.0398 µM [falling, full curve]; under setting [2], 0.0398 µM [falling, full curve].

For the molecule `O=C(CSc1nc2c([nH]c3ccccc32)c(=O)n1-c1cccc(C(F)(F)F)c1)N1CCc2ccccc21`, the AC50 is 11.2 µM [falling, partial curve] under setting [1] and 17.8 µM [falling, partial curve, poor fit] under setting [2].

In the case of `CC(NC(=O)CCn1c(=S)[nH]c2ccsc2c1=O)c1ccccc1` (centres undefined), under setting [2], the AC50 is 35.5 µM [falling, single point].

As for `CC(C)(C)c1ccc(C(=O)NCc2ccccc2)cc1`, the AC50 under setting [2] is 0.447 µM [falling, partial curve].

For `CC(C)c1ccc(NC(=O)CSc2nc3ccccc3nc2Cc2ccccc2)cc1`, the AC50 was 1.41 µM [rising, partial curve] under setting [1] and 2.51 µM [rising, single point] under setting [2].

In the case of `O=C(N/N=C/c1c[nH]c2ccccc12)C1CC1(c1ccccc1)c1ccccc1` (centres undefined), the AC50 under setting [1] is 22.4 µM [falling, single point].

`COc1ccc(-c2cc(C(=O)NN)n(-c3ccccc3)n2)cc1`: the AC50 under setting [2] is 0.0316 µM [rising, full curve, poor fit].

As to `O=C(Cc1ccc(Cl)c(Cl)c1)OCC(=O)c1ccc[nH]1`, the AC50 under setting [1] was 12.6 µM [rising, single point].

On to `O=C(N/N=C/c1cc2ccccc2nc1Cl)[C@H]1C[C@@H]1c1ccccc1`, for which the half-maximal activity concentration (AC50) reads like this: under setting [1], 3.55 µM [rising, full curve, poor fit]; under setting [2], 12.6 µM [rising, partial curve].

Take `NC(=O)c1ccsc1NC(=O)c1nc(-c2ccccc2)n(-c2ccccc2)n1`: under setting [2], the AC50 was 20 µM [rising, single point].

With `CC(C)c1ccccc1NC(=O)COc1ccc(C(=O)NCCc2ccccc2)cc1`, the AC50 under setting [1] was 35.5 µM [falling, single point] and the half-maximal activity concentration (AC50) under setting [2] was 35.5 µM [falling, single point].

Turning to `Cc1ccc2nc(/C(C#N)=C\c3ccc(N4CCOCC4)o3)[nH]c2c1`, the AC50 is, setting by setting: under setting [1], 15.8 µM [falling, partial curve]; under setting [2], 11.2 µM [falling, partial curve].

With `O=C(CSc1nc(O)c(Cc2ccccc2)c(=O)[nH]1)Nc1nc2c(s1)CCCC2`, the AC50 under setting [2] was 0.794 µM [rising, full curve].

With `COc1ccc(-c2nc3cnc(N4CCNCC4)nc3n(Cc3cccs3)c2=O)cc1`, the AC50 runs as follows: under setting [1], 17.8 µM [falling, single point]; under setting [2], 15.8 µM [falling, partial curve].

For `Cc1cc(N=Nc2ccccc2)c(NCC(O)C(O)C(O)CO)cc1C` (centres undefined), the AC50 was 12.6 µM [falling, single point] under setting [1] and 11.2 µM [falling, partial curve] under setting [2].

Turning to `CCOC(=O)c1ccc(NC(=O)CNC(=O)C2CCCCC2)cc1`, the AC50 under setting [1] is 35.5 µM [rising, single point].

As for `COCCn1c(SCC(=O)Nc2sc(C)c(C)c2C#N)nnc1-c1ccc(OC)cc1`, the AC50 under setting [1] was 11.2 µM [rising, partial curve] and the AC50 under setting [2] is 11.2 µM [rising, single point].

For `COc1cccc2sc(NNC(=O)c3nc4ccccc4s3)nc12`, the AC50 by setting is: under setting [1], 4.47 µM [rising, single point]; under setting [2], 3.55 µM [rising, single point].

Take `CC1CCCCC1NS(=O)(=O)c1ccc(S(=O)(=O)NCc2ccncc2)cc1` (centres undefined): the AC50 reads like this: under setting [1], 0.178 µM [rising, full curve, poor fit]; under setting [2], 1.41 µM [rising, full curve].

With `CCC[C@@H](NS(=O)(=O)c1ccc(C)cc1)C(=O)Oc1ccc2c3c(c(=O)oc2c1)CCC3`, under setting [2], the half-maximal activity concentration (AC50) is 14.1 µM [rising, partial curve, poor fit].

Consider `COc1ccc2[nH]cc(CCNc3ncnc4ccc(-c5cccnc5)cc34)c2c1`, for which the AC50 under setting [1] was 22.4 µM [falling, partial curve] and the AC50 under setting [2] is 25.1 µM [falling, partial curve].

Turning to `COc1ccc2[nH]cc(CCNC(=O)c3cnn(-c4ccc(C)cc4)c3C3CCN(C(=O)OC(C)(C)C)CC3)c2c1`, the concentration at half-maximal activity (AC50) is, setting by setting: under setting [1], 10 µM [falling, partial curve, poor fit]; under setting [2], 12.6 µM [falling, partial curve, poor fit].

For orientation: AC50 means the concentration giving half of the maximal activity seen.
